Assay results from patent EP4724480A2.

What was measured:
Test in all cases: ELISA (FIG.12)
[1] = target: Basic membrane protein B (BmpB, Borrelia burgdorferi) (Borrelia burgdorferi)
[2] = target: Hemagglutinin (Influenza B) (Influenza B)
[3] = target: Non-structural protein 1 (NSP-1, Dengue virus) (Dengue virus)
[4] = target: Pilin (Streptococcus pneumoniae) (Streptococcus pneumoniae)

Measured: binding

B1: G2-VHH (VHH)
VHH: QVQLVESGGGLVQPGGSLRLSCAASGFTMGDYAIGWFRQVPGKEREGLSYSTKNGIKAYADSVRDRFTISRENAKNTVYLQMNSLKPEDTAVYYCAASTRFGGLLVSRYDYWGQGTQVTVSS
binds: all assays above

Results are given in words; binding and its absence hold for the method and conditions named. Binding calls can cover weak binding; strength is not graded here.
